Test results: US20040121965A1, “Method of treating resistant tumors” (Wyeth Holdings Corporation, priority 2002, published 2004)

Tested on: MCF7
Test: Cell survival assay (SRB), MCF7
Type: cell-based
Conditions: Homo sapiens, 72 h; MCF7, breast; 3 days, SRB staining
Experimental: 2.2. Cell Survival Assay: Standard Pharmacological Test Procedure. […] Compounds are incubated with cells for 3 days.

## CC(=O)O[C@H]1C(=O)[C@@]2(C)[C@H]([C@H](OC(=O)c3ccccc3)[C@]3(O)C[C@H](OC(=O)[C@H](O)[C@@H](NC(=O)c4ccccc4)c4ccccc4)C(C)=C1C3(C)C)[C@]1(OC(C)=O)CO[C@@H]1C[C@@H]2O [paclitaxel, reference compound]
  IC50: 8.1 ± 1.9 nM
